Counter-ions that a name gives are not always drawn. Some well-known active drugs show little effect in this data set, so a weak value is uncertain.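 OVCAR3, described as chemosensitive, is one of three high-grade serous ovarian cancer lines that differ in chemosensitivity. Toxicity was scaled from DMSO vehicle wells to fully lysed wells; scores came from fitted multi-dose response curves, and the authors treated scores above 5 as indicating drug sensitivity.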

Some test systems named below: OVCAR3; OVCAR4; Kuramochi.
What all share (test): drug sensitivity score (DSS2, cytotoxicity, CellTox Green); higher = more cytotoxic / more sensitive; extreme values may be limits of the assay
Common to all, as to settings: 72 h; doses 0.5, 1, 5 µM

With `CCC[C@H](N[C@@H](C)C(=O)N1[C@H](C(=O)O)C[C@@H]2CCCC[C@@H]21)C(=O)OCC` [Perindopril (erbumine)], the drug sensitivity score with OVCAR3, with OVCAR4 and in the assay with Kuramochi was 0 DSS throughout.
With `CC(=O)N[C@@H](CCC(N)=O)C(=O)O` [Aceglutamide], the drug sensitivity score in the assay on OVCAR3, with OVCAR4 and in the assay on Kuramochi was 0 DSS in each case.
In the case of `CC[C@]1(O)C[C@@H]2CN(CCc3c([nH]c4ccccc34)[C@@](C(=O)OC)(c3cc4c(cc3OC)N(C)[C@H]3[C@@](O)(C(=O)OC)[C@H](OC(C)=O)[C@]5(CC)C=CCN6CC[C@]43[C@@H]65)C2)C1` [Vinblastine (sulfate)], the drug sensitivity score with OVCAR3 was determined as 10 DSS; in the assay with OVCAR4 it was 1 DSS; in the assay on Kuramochi, 2.1 DSS.
The like results for `Nc1nc(F)nc2c1ncn2[C@@H]1O[C@H](CO)[C@@H](O)[C@@H]1O` [Fludarabine] were, in that order, 0 DSS, 0.1 DSS and 0 DSS.
The like results for `CC1=C(CC(=O)O)c2cc(F)ccc2/C1=C\c1ccc([S+](C)[O-])cc1` (centres undefined) [Sulindac] were, in that order, 0 DSS, 0 DSS and 0 DSS.
The like results for `CCc1c2c(nc3ccc(OC(=O)N4CCC(N5CCCCC5)CC4)cc13)-c1cc3c(c(=O)n1C2)COC(=O)[C@]3(O)CC` [Irinotecan] were, in that order, 0 DSS, 0 DSS and 0 DSS.
`CC1=C(/C=C/C(C)=C\C=C\C(C)=C\C(=O)O)C(C)(C)CCC1` [9-cis-Retinoic acid]: the drug sensitivity score in the assay with OVCAR3, with OVCAR4 and with Kuramochi was 0 DSS each time.
As to `CNCCCC12CCC(c3ccccc31)c1ccccc12` [Maprotiline (hydrochloride)], the drug sensitivity score with OVCAR3, with OVCAR4 and with Kuramochi was 0 DSS throughout.
On to `C[C@@H](Oc1cc(-c2cnn(C3CCNCC3)c2)cnc1N)c1c(Cl)ccc(F)c1Cl` [Crizotinib (hydrochloride)], for which the drug sensitivity score with OVCAR3, with OVCAR4 and in the assay with Kuramochi was 0 DSS each time.
`Cc1ccc2c(c1)c1c(n2CCc2ccc(C)nc2)CCN(C)C1` [Latrepirdine (dihydrochloride)]: the drug sensitivity score in the assay with OVCAR3 worked out at 2.4 DSS; with OVCAR4 it was 2.4 DSS; in the assay with Kuramochi it was 4.1 DSS.
Turning to `CCS(=O)(=O)N1CC(CC#N)(n2cc(-c3ncnc4[nH]ccc34)cn2)C1` [Baricitinib (phosphate)], the drug sensitivity score with OVCAR3, in the assay on OVCAR4 and with Kuramochi was 0 DSS throughout.
For the compound `COC(=O)Nc1nc2cc(C(=O)c3ccccc3)ccc2[nH]1` [Mebendazole], the values for the drug sensitivity score in the assay on OVCAR3, in the assay on OVCAR4 and in the assay with Kuramochi were 3.6 DSS, 0 DSS and 1.9 DSS, respectively.
The matching figures for `O=C(O)CCNC(=O)c1ccc(/N=N/c2ccc(O)c(C(=O)O)c2)cc1` [Balsalazide]: 0 DSS, 0 DSS and 0.2 DSS.
In the case of `COC(=O)CCC(=O)CN` [Methyl aminolevulinate (hydrochloride)], the drug sensitivity score in the assay on OVCAR3, in the assay on OVCAR4 and with Kuramochi was 0 DSS throughout.
On to `CC1(C)CC[C@]2(C(=O)O)CC[C@]3(C)C(=CC[C@@H]4[C@@]5(C)CC[C@H](O)C(C)(C)[C@@H]5CC[C@]43C)[C@@H]2C1` [Oleanolic Acid], for which the drug sensitivity score in the assay with OVCAR3, with OVCAR4 and in the assay with Kuramochi was 0 DSS in each case.
In the case of `NC(=O)N1CCC(CC(=O)N2CCC([C@H]3c4ncc(Br)cc4CCc4cc(Cl)cc(Br)c43)CC2)CC1` [Lonafarnib], the drug sensitivity score in the assay on OVCAR3, with OVCAR4 and in the assay on Kuramochi was 0 DSS each time.
Take `CC[C@H]1OC(=O)[C@H](C)[C@@H](O[C@H]2C[C@@](C)(OC)[C@@H](O)[C@H](C)O2)[C@H](C)[C@@H](O[C@@H]2O[C@H](C)C[C@H](N(C)C)[C@H]2O)[C@](C)(OC)C[C@@H](C)C(=O)[C@H](C)[C@@H](O)[C@]1(C)O` [Clarithromycin]: the drug sensitivity score in the assay with OVCAR3, in the assay with OVCAR4 and with Kuramochi was 0 DSS each time.
For `Nc1nc2[nH]cc(CCc3ccc(C(=O)N[C@@H](CCC(=O)O)C(=O)O)cc3)c2c(=O)[nH]1` [Pemetrexed (disodium hemipenta hydrate)], the drug sensitivity score in the assay on OVCAR3, in the assay with OVCAR4 and with Kuramochi was 0 DSS throughout.
On to `C/C=C1\[C@H]2C=C(C)C[C@]1(N)c1ccc(=O)[nH]c1C2` [(-)-Huperzine A], for which the drug sensitivity score with OVCAR3, in the assay on OVCAR4 and with Kuramochi was 0 DSS each time.
On to `NC(=O)NO` [Hydroxyurea], for which the figures for the drug sensitivity score in the assay on OVCAR3, in the assay with OVCAR4 and with Kuramochi were 3.4 DSS, 0 DSS and 0 DSS, respectively.
As for `CS(=O)(=O)OCCCCOS(C)(=O)=O` [Busulfan], the figures for the drug sensitivity score with OVCAR3, with OVCAR4 and with Kuramochi were 0.4 DSS, 0 DSS and 0.6 DSS, respectively.
The like results for `C[Se]CC[C@H](N)C(=O)O` [Selenomethionine] were, in that order, 0 DSS, 0 DSS and 0 DSS.
The like results for `N[C@@H](CCC(=O)O)C(=O)[O-].[Na+]` [L-Glutamic acid (monosodium salt)] were, in that order, 0 DSS, 0 DSS and 0 DSS.
`COc1ccc(C(=O)CC(=O)c2ccc(C(C)(C)C)cc2)cc1` [Avobenzone]: the drug sensitivity score in the assay on OVCAR3 came to 1.5 DSS; in the assay with OVCAR4, 0 DSS; in the assay on Kuramochi it was 0.1 DSS.
The like results for `NC(=O)c1cnc2[nH]ccc2c1N[C@@H]1[C@@H]2CC3C[C@H]1C[C@@](O)(C3)C2` [Peficitinib] were, in that order, 0 DSS, 0 DSS and 0 DSS.
The like results for `CC[C@H](C)[C@H]1O[C@]2(CC[C@@H]1C)C[C@@H]1C[C@@H](C/C=C(\C)[C@@H](O[C@H]3C[C@H](OC)C(O[C@H]4C[C@H](OC)[C@@H](O)[C@H](C)O4)[C@H](C)O3)[C@@H](C)/C=C/C=C3\CO[C@@H]4[C@H](O)C(C)=C[C@@H](C(=O)O1)[C@]34O)O2.CO[C@H]1C[C@H](O[C@@H]2/C(C)=C/C[C@@H]3C[C@@H](C[C@]4(CC[C@H](C)[C@@H](C(C)C)O4)O3)OC(=O)[C@@H]3C=C(C)[C@@H](O)[C@H]4OC/C(=C\C=C\[C@@H]2C)[C@]43O)O[C@@H](C)C1O[C@H]1C[C@H](OC)[C@@H](O)[C@H](C)O1` (some centres undefined) [Ivermectin] were, in that order, 0 DSS, 0 DSS and 0 DSS.
The like results for `CC[C@H](C)C(=O)O[C@H]1C[C@@H](C)C=C2C=C[C@H](C)[C@H](CC[C@@H]3C[C@@H](O)CC(=O)O3)[C@H]21` [Lovastatin] were, in that order, 1 DSS, 0.4 DSS and 2.2 DSS.
Regarding `CC(C)Cn1cnc2c(N)nc3ccccc3c21` [Imiquimod], the drug sensitivity score in the assay on OVCAR3, in the assay on OVCAR4 and with Kuramochi was 0 DSS in each case.
`CC(=O)[C@H]1CC[C@H]2[C@@H]3CC=C4C[C@@H](OS(=O)(=O)O)CC[C@]4(C)[C@H]3CC[C@]12C` [Pregnenolone monosulfate]: the drug sensitivity score in the assay with OVCAR3, in the assay with OVCAR4 and with Kuramochi was 0 DSS each time.
Consider `COC(=O)C1=C(C)NC(C)=C(C(=O)OC(C)C)C1c1cccc2nonc12` (centres undefined) [Isradipine], for which the drug sensitivity score in the assay with OVCAR3, in the assay on OVCAR4 and with Kuramochi was 0 DSS throughout.
On to `CC(C)C[C@H](NC(=O)[C@H](Cc1ccccc1)NC(=O)c1cnccn1)B(O)O` [Bortezomib], for which the drug sensitivity score with OVCAR3 stood at 1.8 DSS; in the assay with OVCAR4 it was 3.3 DSS; in the assay with Kuramochi, 7 DSS.
The matching figures for `Cn1cnc2c(F)c(Nc3ccc(Br)cc3Cl)c(C(=O)NOCCO)cc21` [Selumetinib]: 1.3 DSS, 0 DSS and 0 DSS.
The like results for `CC(=O)c1ccc2c(c1)c1cc(C(C)=O)ccc1n2CCNC(C)C` [CBL0137 hydrochloride] were, in that order, 0.2 DSS, 1.4 DSS and 0 DSS.
The matching figures for `Cc1nnc(NC(=O)c2nc(S(=O)(=O)Cc3ccc(F)cc3)ncc2Cl)s1`: 0 DSS, 0 DSS and 0 DSS.
For the compound `CC(C)(C)c1cc(NC(=O)Nc2ccc(-c3cn4c(n3)sc3cc(OCCN5CCOCC5)ccc34)cc2)no1` [Quizartinib], the drug sensitivity score in the assay on OVCAR3, in the assay on OVCAR4 and with Kuramochi was 0 DSS throughout.
On to `OC(c1cc(C(F)(F)F)nc2c(C(F)(F)F)cccc12)C1CCCCN1` (centres undefined) [Mefloquine (hydrochloride)], for which the results for the drug sensitivity score with OVCAR3, in the assay on OVCAR4 and with Kuramochi were 0 DSS, 0.5 DSS and 0 DSS, respectively.
With `CN(C)c1nc(N(C)C)nc(N(C)C)n1` [Altretamine], the drug sensitivity score in the assay on OVCAR3 was 1 DSS; in the assay with OVCAR4, 0 DSS; in the assay on Kuramochi it was 0.4 DSS.
The like results for `COc1ccc(C(=O)c2ccccc2)c(O)c1` [Oxybenzone] were, in that order, 0 DSS, 0 DSS and 0 DSS.

The record behind these values is the supplement of paper PMC12593923.
